In patent US20050026827A1 (Societe de Conseils de Recherches et d'Applications …, priority 1987, published 2005):

What was measured:
[1] = general procedure: Boc solid-phase peptide synthesis; benzhydrylamine-polystyrene; diisopropylcarbodiimide; preformed HOBt esters; details: whole synthesis, scale 0.5 mmole
[2] = general procedure: Boc solid-phase peptide synthesis; Benzhydrylamine-polystyrene resin; methylbenzhydrylamine-polystyrene resin; Boc-Leu-O-Merrifield resin; diisopropylcarbodiimide; preformed HOBt esters; details: whole synthesis, scale of the general procedure 0.25-0.73 mmol, GRF analogues 0.25 mmol; for final HPLC purity: 215 nm
[3] = general procedure: Boc solid-phase peptide synthesis; Boc-Leu-O-Merrifield resin; diisopropylcarbodiimide; preformed HOBt esters; details: whole synthesis, scale 0.5 mmole
[4] = general procedure: Boc solid-phase peptide synthesis; methylbenzhydrylamine resin; diisopropylcarbodiimide; preformed HOBt esters; details: whole synthesis, scale 0.25 mmole
[5] = general procedure: Boc solid-phase peptide synthesis; methylbenzhydrylamine-polystyrene; diisopropylcarbodiimide; preformed HOBt esters; details: whole synthesis, scale 0.73 mmol

Substance “pGlu-Gln-Trp-Ala-Val-Gly-His-Leuψ[CH2NH]Leu-NH2” has an isolated mass [1] of 60 mg.

In the case of [Asn^8ψ[CH2NH]-Ser^9]GRF(1-29)NH2, the outcome [2] is reported as “could not be synthesised”.

In the case of GRF(1-29)NH2, the “final HPLC purity” value [2] is reported as 99.4%.

“PEPTIDE1{[dF].Q.W.A.V.[N-Me-D-Ala].H.L.[OMe]}$$$$V2.0” gave an isolated mass [3] of 49 mg.

For “Tyr-Ala-Asp-Ala-Ile-Phe-Thr-Asn-Serψ[CH2NH]Tyr-Arg-Lys-Val-Leu-Gly-Gln-Leu-Ser-Ala-Arg-Lys-Leu-Leu-Gln-Asp-Ile-Met-Ser-Arg-NH2”, the “final HPLC purity” value [2] was 92.6% and the isolated mass [4] was 8.0 mg.

In the case of pGlu-Gln-Trp-Ala-Val-Gly-His-Sta-NH2, the isolated mass [5] is reported as 77 mg.

For some of these results: Strings that start with PEPTIDE1 are HELM notation: dots part the residues, brackets hold end groups and non-standard residues.
